Measurements: patent US11407792B2, “Regulating electron flow using fragmented proteins” (WILLIAM MARSH RICE UNIVERSITY, priority 2017, dated 2022)
Some of these results come from one statement about several compounds together.

Test system: E. coli EW11
Assay: E. coli EW11 growth complementation by native, split or engineered Fds
Format: cell-based, Escherichia coli
Conditions: after 24 hours; Fd expressed from an aTc-inducible promoter, FNR and SIR constitutive
Method: Growth assay. […] Optical density (OD) measurements were taken every 10 minutes.
To rapidly assay ET mediated by engineered Fds, an Escherichia coli sulfide auxotroph (EW11; Barstow et al., 2011), which cannot grow in minimal medium containing sulfate as a sulfur source unless it expresses a synthetic ET chain consisting of a Fd-NADP+ reductase (FNR) electron donor, a Fd electron carrier, and a Fd-dependent sulfite reductase (SIR) electron acceptor, was used (FIG. 25A). Endogenous oxidoreductases were systematically removed from the genome of this strain to insulate Fd-dependent redox pathways from native redox reactions (Barstow et al., 2011). To evaluate Fd ET, Zea mays FNR and SIR were constitutively expressed and a TetR-repressible promoter was used to control the expression of plant-type 2Fe-2S Fds. […]
With this expression strategy, the inventors can quickly assess which split Fds require two fragments to function in complementation assays by assessing growth in the presence and absence of both inducers because growth depended upon the level of anhydrotetracycline (aTc) (FIG. 25B), and thus, the amount of Fd available to mediate ET. […] For these experiments, they assessed split Fd function in the presence of a constant high concentration of aTc, and varying concentrations of IPTG, which selectively drive the distinct promoters. […]

Substance	k1/2, growth complementation as a function of aTc [ng/mL aTc]
Spinacia oleracea: Spinacia oleracea 2Fe-2S ferredoxin, expressed from pFd003	> 250
Prochlorococcus phage: Prochlorococcus phage P-SSM2 2Fe-2S ferredoxin, expressed from pFd022	> 250
